Laboratory results: the supplement of paper PMC10849652
The list shows a part of the results.

By UniProt entry, the sequences of proteins in these tests, tags left out. Where a name states a change or a piece, a line headed by the entry shows the natural chain unless it says otherwise.
UniProt Q86UK5: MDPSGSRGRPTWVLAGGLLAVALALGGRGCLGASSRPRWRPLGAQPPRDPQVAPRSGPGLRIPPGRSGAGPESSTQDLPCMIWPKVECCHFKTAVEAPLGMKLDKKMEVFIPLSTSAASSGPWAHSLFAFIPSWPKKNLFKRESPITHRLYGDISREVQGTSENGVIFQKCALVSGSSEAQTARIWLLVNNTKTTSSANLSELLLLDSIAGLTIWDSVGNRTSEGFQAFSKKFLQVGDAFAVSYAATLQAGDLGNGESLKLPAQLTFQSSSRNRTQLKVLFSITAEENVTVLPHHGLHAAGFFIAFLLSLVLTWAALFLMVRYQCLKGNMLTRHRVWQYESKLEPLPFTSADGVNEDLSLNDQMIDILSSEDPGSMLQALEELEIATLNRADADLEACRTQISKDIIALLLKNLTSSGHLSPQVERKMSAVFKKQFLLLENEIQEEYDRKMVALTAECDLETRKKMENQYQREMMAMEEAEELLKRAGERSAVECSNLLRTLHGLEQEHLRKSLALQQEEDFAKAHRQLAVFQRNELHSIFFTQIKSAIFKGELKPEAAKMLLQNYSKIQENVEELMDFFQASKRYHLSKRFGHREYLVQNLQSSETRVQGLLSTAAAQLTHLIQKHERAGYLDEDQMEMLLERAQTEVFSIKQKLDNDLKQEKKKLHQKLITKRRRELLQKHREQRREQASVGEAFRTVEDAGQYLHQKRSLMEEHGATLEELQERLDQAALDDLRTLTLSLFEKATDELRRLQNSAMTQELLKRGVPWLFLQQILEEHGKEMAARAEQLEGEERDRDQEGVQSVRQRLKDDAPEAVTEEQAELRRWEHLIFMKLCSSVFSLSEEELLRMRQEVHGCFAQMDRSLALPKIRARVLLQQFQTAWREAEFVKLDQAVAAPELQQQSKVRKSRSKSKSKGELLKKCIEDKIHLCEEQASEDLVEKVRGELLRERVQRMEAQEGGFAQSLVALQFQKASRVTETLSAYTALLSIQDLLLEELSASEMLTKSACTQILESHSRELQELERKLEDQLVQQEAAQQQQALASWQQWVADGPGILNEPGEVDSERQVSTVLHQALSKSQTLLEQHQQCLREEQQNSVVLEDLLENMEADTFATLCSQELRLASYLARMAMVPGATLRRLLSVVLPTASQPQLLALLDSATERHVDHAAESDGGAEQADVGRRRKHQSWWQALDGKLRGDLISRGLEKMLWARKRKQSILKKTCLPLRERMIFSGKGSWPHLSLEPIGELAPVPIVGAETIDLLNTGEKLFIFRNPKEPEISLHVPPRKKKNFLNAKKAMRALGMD
UniProt Q96A65: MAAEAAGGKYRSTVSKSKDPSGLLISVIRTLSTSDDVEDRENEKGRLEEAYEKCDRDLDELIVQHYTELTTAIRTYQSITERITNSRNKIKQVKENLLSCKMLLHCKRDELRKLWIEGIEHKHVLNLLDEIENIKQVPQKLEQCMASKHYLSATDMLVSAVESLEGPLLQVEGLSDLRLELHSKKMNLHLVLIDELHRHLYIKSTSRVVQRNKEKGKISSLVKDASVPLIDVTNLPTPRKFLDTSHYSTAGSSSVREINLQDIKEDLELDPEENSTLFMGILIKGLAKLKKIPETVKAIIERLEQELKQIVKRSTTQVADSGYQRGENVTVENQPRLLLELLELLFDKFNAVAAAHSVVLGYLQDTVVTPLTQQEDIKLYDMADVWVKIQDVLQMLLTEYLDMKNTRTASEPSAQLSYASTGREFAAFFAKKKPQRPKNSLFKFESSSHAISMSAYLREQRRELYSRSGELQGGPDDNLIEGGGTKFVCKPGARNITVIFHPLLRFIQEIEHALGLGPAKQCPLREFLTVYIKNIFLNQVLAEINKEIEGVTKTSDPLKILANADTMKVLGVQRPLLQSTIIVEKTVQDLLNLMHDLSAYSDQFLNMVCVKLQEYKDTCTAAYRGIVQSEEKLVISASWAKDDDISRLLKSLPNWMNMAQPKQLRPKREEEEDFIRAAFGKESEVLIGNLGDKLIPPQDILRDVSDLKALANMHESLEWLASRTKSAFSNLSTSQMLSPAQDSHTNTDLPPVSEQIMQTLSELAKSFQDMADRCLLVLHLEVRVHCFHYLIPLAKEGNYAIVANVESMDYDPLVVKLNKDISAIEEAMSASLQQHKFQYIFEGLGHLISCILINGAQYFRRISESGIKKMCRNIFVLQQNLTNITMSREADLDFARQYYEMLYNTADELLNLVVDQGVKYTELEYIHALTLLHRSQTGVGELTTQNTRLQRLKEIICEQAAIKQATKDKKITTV
UniProt Q96KP1: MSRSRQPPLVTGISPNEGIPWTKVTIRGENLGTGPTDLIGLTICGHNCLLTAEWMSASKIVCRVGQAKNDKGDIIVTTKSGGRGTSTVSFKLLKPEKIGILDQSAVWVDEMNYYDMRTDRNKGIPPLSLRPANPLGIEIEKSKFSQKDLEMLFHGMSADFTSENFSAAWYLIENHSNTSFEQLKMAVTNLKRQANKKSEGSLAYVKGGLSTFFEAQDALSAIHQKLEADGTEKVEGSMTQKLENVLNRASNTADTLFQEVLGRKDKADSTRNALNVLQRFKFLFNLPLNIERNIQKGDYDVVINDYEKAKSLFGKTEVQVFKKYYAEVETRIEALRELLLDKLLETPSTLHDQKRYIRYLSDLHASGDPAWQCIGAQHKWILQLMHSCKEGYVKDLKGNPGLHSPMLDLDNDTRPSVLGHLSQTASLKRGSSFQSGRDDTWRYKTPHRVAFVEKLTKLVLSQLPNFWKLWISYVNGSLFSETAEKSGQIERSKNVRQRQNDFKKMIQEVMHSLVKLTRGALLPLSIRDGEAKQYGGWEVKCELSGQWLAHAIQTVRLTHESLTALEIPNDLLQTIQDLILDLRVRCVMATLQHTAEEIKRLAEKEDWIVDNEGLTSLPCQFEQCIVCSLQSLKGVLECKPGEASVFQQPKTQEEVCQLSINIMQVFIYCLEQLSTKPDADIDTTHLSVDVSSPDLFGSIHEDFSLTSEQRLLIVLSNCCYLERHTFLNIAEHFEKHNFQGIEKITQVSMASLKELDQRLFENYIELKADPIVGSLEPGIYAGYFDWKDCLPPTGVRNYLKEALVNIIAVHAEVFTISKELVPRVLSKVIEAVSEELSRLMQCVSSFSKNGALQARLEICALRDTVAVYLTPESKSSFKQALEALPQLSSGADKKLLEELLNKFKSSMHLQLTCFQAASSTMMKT
UniProt O94905: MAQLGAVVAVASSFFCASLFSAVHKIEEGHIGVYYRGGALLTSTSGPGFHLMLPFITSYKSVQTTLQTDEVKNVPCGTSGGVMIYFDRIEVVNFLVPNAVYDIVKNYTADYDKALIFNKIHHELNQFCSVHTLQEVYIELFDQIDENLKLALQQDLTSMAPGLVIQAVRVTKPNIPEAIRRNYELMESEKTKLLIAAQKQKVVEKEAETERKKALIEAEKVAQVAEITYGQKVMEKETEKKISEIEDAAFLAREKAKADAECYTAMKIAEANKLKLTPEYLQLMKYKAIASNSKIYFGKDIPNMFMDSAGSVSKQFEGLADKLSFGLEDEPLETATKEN
UniProt Q8TAG9: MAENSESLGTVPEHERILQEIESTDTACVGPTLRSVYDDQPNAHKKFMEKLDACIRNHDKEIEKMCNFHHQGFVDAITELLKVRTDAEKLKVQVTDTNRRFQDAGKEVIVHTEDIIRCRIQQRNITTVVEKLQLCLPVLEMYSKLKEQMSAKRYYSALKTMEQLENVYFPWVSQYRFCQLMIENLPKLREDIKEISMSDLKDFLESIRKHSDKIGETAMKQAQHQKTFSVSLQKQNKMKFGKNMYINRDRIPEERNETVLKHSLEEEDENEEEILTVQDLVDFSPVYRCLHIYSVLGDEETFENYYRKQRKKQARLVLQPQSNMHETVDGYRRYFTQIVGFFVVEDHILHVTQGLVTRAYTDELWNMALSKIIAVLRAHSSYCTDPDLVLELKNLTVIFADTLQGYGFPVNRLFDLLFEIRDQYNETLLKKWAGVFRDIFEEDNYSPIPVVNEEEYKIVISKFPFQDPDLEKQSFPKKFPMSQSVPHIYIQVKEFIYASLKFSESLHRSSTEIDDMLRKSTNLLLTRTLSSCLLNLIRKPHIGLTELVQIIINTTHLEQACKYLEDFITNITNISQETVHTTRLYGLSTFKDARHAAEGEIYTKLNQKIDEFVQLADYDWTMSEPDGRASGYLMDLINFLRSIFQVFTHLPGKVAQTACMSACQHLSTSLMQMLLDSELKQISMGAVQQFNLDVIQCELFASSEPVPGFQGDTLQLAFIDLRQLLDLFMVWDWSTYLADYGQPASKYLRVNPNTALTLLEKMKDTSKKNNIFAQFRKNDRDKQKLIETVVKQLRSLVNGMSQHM
UniProt Q8N128: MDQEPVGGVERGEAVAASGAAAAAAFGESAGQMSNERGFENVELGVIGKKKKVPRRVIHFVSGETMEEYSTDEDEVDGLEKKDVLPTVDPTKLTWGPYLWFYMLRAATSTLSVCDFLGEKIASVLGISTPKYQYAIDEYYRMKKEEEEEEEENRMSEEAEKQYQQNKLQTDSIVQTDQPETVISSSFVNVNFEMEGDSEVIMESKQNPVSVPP
UniProt Q9NWS6: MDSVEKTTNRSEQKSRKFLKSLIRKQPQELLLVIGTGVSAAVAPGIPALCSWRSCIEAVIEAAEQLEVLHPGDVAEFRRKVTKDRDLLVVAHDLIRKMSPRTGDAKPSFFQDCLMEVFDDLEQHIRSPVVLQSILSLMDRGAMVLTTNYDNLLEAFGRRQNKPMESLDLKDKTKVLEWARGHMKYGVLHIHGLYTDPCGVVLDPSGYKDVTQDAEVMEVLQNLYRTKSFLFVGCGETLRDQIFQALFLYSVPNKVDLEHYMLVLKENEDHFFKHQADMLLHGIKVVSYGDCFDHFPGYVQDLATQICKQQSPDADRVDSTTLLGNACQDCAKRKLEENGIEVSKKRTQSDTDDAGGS
UniProt Q96CS3: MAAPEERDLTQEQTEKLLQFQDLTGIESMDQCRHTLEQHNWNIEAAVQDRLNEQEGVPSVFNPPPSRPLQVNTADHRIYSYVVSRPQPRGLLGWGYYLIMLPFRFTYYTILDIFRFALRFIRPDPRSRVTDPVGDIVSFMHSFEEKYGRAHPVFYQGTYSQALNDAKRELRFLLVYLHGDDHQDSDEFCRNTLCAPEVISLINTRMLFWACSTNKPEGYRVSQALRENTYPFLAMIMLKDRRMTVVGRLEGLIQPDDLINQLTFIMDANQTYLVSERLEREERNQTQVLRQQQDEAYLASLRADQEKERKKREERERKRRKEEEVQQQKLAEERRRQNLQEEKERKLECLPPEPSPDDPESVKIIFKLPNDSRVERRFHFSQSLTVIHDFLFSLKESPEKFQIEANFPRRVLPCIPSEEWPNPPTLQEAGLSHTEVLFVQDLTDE
UniProt Q86YB8: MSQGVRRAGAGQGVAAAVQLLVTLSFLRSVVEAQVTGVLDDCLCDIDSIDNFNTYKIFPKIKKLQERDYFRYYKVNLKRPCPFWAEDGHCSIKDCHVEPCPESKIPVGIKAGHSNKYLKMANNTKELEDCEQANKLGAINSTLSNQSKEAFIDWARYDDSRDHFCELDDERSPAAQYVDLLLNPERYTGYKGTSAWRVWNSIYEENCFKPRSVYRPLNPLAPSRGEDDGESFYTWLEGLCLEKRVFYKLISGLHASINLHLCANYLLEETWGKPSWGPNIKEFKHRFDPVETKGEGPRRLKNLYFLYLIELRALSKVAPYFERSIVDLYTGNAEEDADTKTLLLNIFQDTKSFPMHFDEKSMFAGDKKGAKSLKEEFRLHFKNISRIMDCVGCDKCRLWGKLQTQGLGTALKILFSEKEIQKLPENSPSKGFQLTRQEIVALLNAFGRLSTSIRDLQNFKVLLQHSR
UniProt Q9HBU6: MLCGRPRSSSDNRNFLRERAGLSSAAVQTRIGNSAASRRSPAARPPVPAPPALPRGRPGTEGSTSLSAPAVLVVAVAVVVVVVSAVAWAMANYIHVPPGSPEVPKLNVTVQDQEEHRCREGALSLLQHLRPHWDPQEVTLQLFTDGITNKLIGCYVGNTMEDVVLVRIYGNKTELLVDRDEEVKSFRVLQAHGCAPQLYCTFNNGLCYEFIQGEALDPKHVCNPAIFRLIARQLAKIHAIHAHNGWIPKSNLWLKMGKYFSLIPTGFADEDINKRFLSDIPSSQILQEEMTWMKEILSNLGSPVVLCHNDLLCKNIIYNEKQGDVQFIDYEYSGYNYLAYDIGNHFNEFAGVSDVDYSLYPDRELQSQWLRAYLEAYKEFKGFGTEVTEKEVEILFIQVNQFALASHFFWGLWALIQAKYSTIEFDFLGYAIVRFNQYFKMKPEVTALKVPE
UniProt Q13158: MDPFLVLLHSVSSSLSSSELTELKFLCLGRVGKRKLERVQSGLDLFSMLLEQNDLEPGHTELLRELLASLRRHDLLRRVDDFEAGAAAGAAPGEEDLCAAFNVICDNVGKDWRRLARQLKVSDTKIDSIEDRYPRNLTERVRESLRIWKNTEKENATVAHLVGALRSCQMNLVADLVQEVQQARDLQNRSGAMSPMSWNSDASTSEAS

Tests used:
Test in all cases: log2 fold change, soluble protein after heating vs DMSO (PISA); higher = thermal stabilisation; K562 cells, 10 uM, 30 min; active = over 0.2 and 3.5 SD of the protein, either way, in both replicates (recomputed)
[1] = compound: CS(=O)(=O)c1ccc(-c2cnc(N)c(C(=O)Nc3ccccc3)n2)cc1
Procedure, shortened: (§1)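 Quantification of soluble protein used TMTpro 16plex LC-MS/MS, with channel sums equalised. Samples were the supernatant after 21,000xg for 90 min of pooled aliquots from K562 cells (2×10^6 cells/mL) treated with 10 μM compound for 30 min, heated for 3 min over 48°C-58°C, and extracted in PBS with 0.5% NP-40 at 4°C. Values, from duplicates, describe thermal stability against control samples on a log2 fold-change scale.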

crizotinib = compound: C[C@@H](Oc1cc(-c2cnn(C3CCNCC3)c2)cnc1N)c1c(Cl)ccc(F)c1Cl [crizotinib]
Procedure, shortened: as §1

[2] = compound: C[C@@H]1COCCN1C2=NC(=NC(=C2)C3(CC3)S(=O)(=O)C)C4=C5C=CNC5=CC=C4
Procedure, shortened: as §1

[3] = compound: C[C@H](C1=CC=C(C=C1)C(=O)NC2=C3C=CNC3=NC=C2)N
Procedure, shortened: as §1

gandotinib = compound: Cc1cc(Nc2cc(CN3CCOCC3)c3nc(C)c(Cc4ccc(Cl)cc4F)n3n2)n[nH]1 [gandotinib]
Procedure, shortened: as §1

[4] = compound: Cc1cc(SCc2sc(-c3ccc(C(F)(F)F)cc3)nc2C)ccc1OCC(=O)O
Procedure, shortened: as §1

doramapimod = compound: Cc1ccc(-n2nc(C(C)(C)C)cc2NC(=O)Nc2ccc(OCCN3CCOCC3)c3ccccc23)cc1 [doramapimod]
Procedure, shortened: as §1

ispinesib = compound: Cc1ccc(C(=O)N(CCCN)[C@@H](c2nc3cc(Cl)ccc3c(=O)n2Cc2ccccc2)C(C)C)cc1 [ispinesib]
Procedure, shortened: as §1

bafetinib = compound: Cc1ccc(NC(=O)c2ccc(CN3CC[C@H](N(C)C)C3)c(C(F)(F)F)c2)cc1Nc1nccc(-c2cncnc2)n1 [bafetinib]
Procedure, shortened: as §1

[5] = compound: Cc1cccc(CC(=O)N2CCc3c2ccc(-c2cn(C)c4ncnc(N)c24)c3F)n1
Procedure, shortened: as §1

nilotinib = compound: Cc1cn(-c2cc(NC(=O)c3ccc(C)c(Nc4nccc(-c5cccnc5)n4)c3)cc(C(F)(F)F)c2)cn1 [nilotinib]
Procedure, shortened: as §1

[6] = compound: Cc1nc(Nc2n[nH]c3c2CN(C(=O)N[C@H](CN(C)C)c2ccccc2)C3(C)C)c2sccc2n1
Procedure, shortened: as §1

dasatinib = compound: Cc1nc(Nc2ncc(C(=O)Nc3c(C)cccc3Cl)s2)cc(N2CCN(CCO)CC2)n1 [dasatinib]
Procedure, shortened: as §1

[7] = compound: Cc1ncc(-c2ccnc(Nc3ccc(S(C)(=O)=O)cc3)n2)n1C(C)C
Procedure, shortened: as §1

[8] = compound: Cn1cc(-c2ccc3c(c2)CCN3C(=O)Cc2cccc(C(F)(F)F)c2)c2c(N)ncnc21
Procedure, shortened: as §1

[9] = compound: Cn1cc(-c2ccc3nnc(C(F)(F)c4ccc5ncccc5c4)n3n2)cn1
Procedure, shortened: as §1

tipifarnib = compound: Cn1cncc1[C@@](N)(c1ccc(Cl)cc1)c1ccc2c(c1)c(-c1cccc(Cl)c1)cc(=O)n2C [tipifarnib]
Procedure, shortened: as §1

mubritinib = compound: FC(F)(F)c1ccc(/C=C/c2nc(COc3ccc(CCCCn4ccnn4)cc3)co2)cc1 [mubritinib]
Procedure, shortened: as §1

duvelisib = compound: C[C@H](Nc1ncnc2nc[nH]c12)c1cc2cccc(Cl)c2c(=O)n1-c1ccccc1 [duvelisib]
Procedure, shortened: as §1

tozasertib = compound: Cc1cc(Nc2cc(N3CCN(C)CC3)nc(Sc3ccc(NC(=O)C4CC4)cc3)n2)n[nH]1 [tozasertib]
Procedure, shortened: as §1

Measured: log2 fold change

EXOC1 (UniProt Q9NV70)
active: ispinesib -0.472
inactive: [1] -0.036 | crizotinib -0.336 | [2] -0.007 | [3] 0.174 | gandotinib -0.179 | [4] 0.067 | doramapimod 0.138 | bafetinib 0.061 | [5] 0.025 | nilotinib -0.034 | [6] -0.069 | dasatinib -0.126 | [7] -0.051 | [8] -0.008 | [9] 0.026 | tipifarnib -0.098 | mubritinib 0.032

EVC2 (UniProt Q86UK5)
inactive: [1] 0.022 | crizotinib -0.061 | [2] -0.244 | [3] -0.209 | gandotinib 0.071 | [4] -0.052 | doramapimod 0 | ispinesib 0.065 | bafetinib -0.08 | [5] 0.023 | nilotinib -0.066 | [6] -0.092 | dasatinib -0.043 | [7] 0.131 | [8] -0.149 | [9] -0.148 | tipifarnib 0.162 | mubritinib -0.053

FADS1, A0A0A0MR51
active: gandotinib 0.434 | ispinesib -0.252 | [8] 0.253
inactive: [1] 0.096 | crizotinib -0.049 | [2] -0.019 | [3] -0.026 | [4] -0.007 | doramapimod 0 | bafetinib -0.03 | [5] 0.062 | nilotinib 0.004 | [6] -0.005 | dasatinib 0.011 | [7] -0.019 | [9] -0.045 | tipifarnib -0.021 | mubritinib 0.028

F5 (UniProt P12259)
inactive: [1] 0.081 | crizotinib 0.257 | [2] -0.064 | [3] 0.057 | gandotinib 0.023 | [4] 0.223 | doramapimod 0.019 | ispinesib 0.055 | bafetinib -0.076 | [5] -0.02 | nilotinib 0.021 | [6] 0.019 | dasatinib 0.05 | [7] 0.023 | [8] 0.072 | [9] 0.111 | tipifarnib 0.153 | mubritinib -0.089

FAM122A (UniProt Q96E09)
inactive: [1] 0.077 | crizotinib -0.032 | [2] -0.267 | [3] -0.042 | gandotinib -0.015 | [4] -0.015 | doramapimod 0.014 | ispinesib 0 | bafetinib -0.096 | [5] -0.185 | nilotinib 0.027 | [6] -0.184 | dasatinib -0.054 | [7] 0.059 | [8] 0.024 | [9] 0.037 | tipifarnib -0.059 | mubritinib 0.009

EXOC4 (UniProt Q96A65)
inactive: [1] 0.003 | crizotinib -0.275 | [2] -0.099 | [3] 0.098 | gandotinib -0.068 | [4] 0.162 | doramapimod 0.016 | ispinesib -0.29 | bafetinib 0.012 | [5] 0.11 | nilotinib -0.068 | [6] -0.155 | dasatinib -0.15 | [7] -0.031 | [8] -0.026 | [9] 0.013 | tipifarnib -0.088 | mubritinib 0.078

EXOC2 (UniProt Q96KP1)
active: ispinesib -0.394
inactive: [1] 0.006 | crizotinib -0.308 | [2] -0.112 | [3] 0.101 | gandotinib 0.009 | [4] 0.119 | doramapimod 0.06 | bafetinib 0.021 | [5] -0.089 | nilotinib -0.002 | [6] -0.135 | dasatinib -0.301 | [7] 0.028 | [8] -0.011 | [9] -0.081 | tipifarnib -0.066 | mubritinib 0.035

ERLIN2 (UniProt O94905)
inactive: [1] -0.017 | crizotinib -0.034 | [2] -0.167 | [3] 0.068 | gandotinib -0.044 | [4] 0.155 | doramapimod 0.057 | bafetinib 0.039 | [5] 0.032 | nilotinib -0.107 | [6] 0.012 | dasatinib -0.023 | [7] 0.023 | [8] -0.104 | [9] 0 | tipifarnib 0.024 | mubritinib -0.049
active: ispinesib -0.251

EXOC6 (UniProt Q8TAG9)
inactive: [1] 0.001 | crizotinib -0.206 | [2] -0.038 | [3] 0.033 | gandotinib -0.098 | [4] 0.1 | doramapimod 0.02 | bafetinib -0.013 | [5] 0.036 | nilotinib -0.013 | [6] -0.196 | dasatinib -0.22 | [7] -0.013 | [8] 0.042 | [9] 0.028 | tipifarnib -0.076 | mubritinib 0.07
active: ispinesib -0.363

FAM177A1 isoform 2 (UniProt Q8N128)
inactive: [1] 0.018 | crizotinib -0.109 | [2] 0.059 | [3] -0.063 | gandotinib -0.102 | [4] -0.027 | doramapimod -0.012 | ispinesib -0.082 | bafetinib -0.125 | [5] -0.007 | nilotinib -0.113 | [6] 0.005 | dasatinib -0.098 | [7] -0.044 | [8] 0.038 | [9] -0.005 | tipifarnib -0.01 | mubritinib 0.004

Reprinted from above (3 entries):
FAM122A (UniProt Q96E09)
inactive: [1] 0.077 | crizotinib -0.032 | [2] -0.267 | [3] -0.042 | gandotinib -0.015 | [4] -0.015 | doramapimod 0.014 | ispinesib 0 | bafetinib -0.096 | [5] -0.185 | nilotinib 0.027 | [6] -0.184 | dasatinib -0.054 | [7] 0.059 | [8] 0.024 | [9] 0.037 | tipifarnib -0.059 | mubritinib 0.009

EXOC4 (UniProt Q96A65)
inactive: [1] 0.003 | crizotinib -0.275 | [2] -0.099 | [3] 0.098 | gandotinib -0.068 | [4] 0.162 | doramapimod 0.016 | ispinesib -0.29 | bafetinib 0.012 | [5] 0.11 | nilotinib -0.068 | [6] -0.155 | dasatinib -0.15 | [7] -0.031 | [8] -0.026 | [9] 0.013 | tipifarnib -0.088 | mubritinib 0.078

EXOC2 (UniProt Q96KP1)
active: ispinesib -0.394
inactive: [1] 0.006 | crizotinib -0.308 | [2] -0.112 | [3] 0.101 | gandotinib 0.009 | [4] 0.119 | doramapimod 0.06 | bafetinib 0.021 | [5] -0.089 | nilotinib -0.002 | [6] -0.135 | dasatinib -0.301 | [7] 0.028 | [8] -0.011 | [9] -0.081 | tipifarnib -0.066 | mubritinib 0.035

Continued.

FAM118A (UniProt Q9NWS6)
inactive: [1] -0.028 | crizotinib -0.112 | [2] 0.044 | [3] 0.036 | gandotinib -0.44 | [4] 0.097 | doramapimod -0.02 | ispinesib 0.034 | bafetinib -0.076 | [5] 0 | nilotinib -0.092 | [6] -0.216 | dasatinib -0.314 | [7] -0.039 | [8] -0.019 | [9] 0.135 | tipifarnib -0.128 | mubritinib 0.043

FAF2 (UniProt Q96CS3)
inactive: [1] 0.049 | crizotinib -0.056 | [2] 0.042 | [3] 0.049 | gandotinib 0.022 | [4] 0.059 | doramapimod 0.023 | ispinesib -0.011 | bafetinib -0.058 | [5] -0.022 | nilotinib -0.042 | [6] -0.049 | dasatinib -0.075 | [7] 0 | [8] 0.017 | [9] -0.04 | tipifarnib -0.021 | mubritinib -0.011

ERO1B (UniProt Q86YB8)
inactive: [1] 0.009 | crizotinib 0.034 | [2] 0.019 | [3] 0.215 | duvelisib -0.212 | [4] 0.116 | doramapimod 0.076 | bafetinib -0.009 | nilotinib -0.099 | [6] -0.061 | dasatinib 0.196 | [7] -0.027 | [8] 0.009 | tipifarnib 0.012 | mubritinib 0.079

ETNK1 (UniProt Q9HBU6)
inactive: [1] -0.006 | crizotinib -0.022 | [2] 0.088 | [3] -0.032 | gandotinib -0.057 | [4] 0.118 | doramapimod 0.001 | ispinesib 0.059 | bafetinib -0.042 | [5] 0.037 | nilotinib -0.043 | [6] 0.08 | dasatinib -0.07 | [7] 0.06 | [8] 0.026 | [9] 0.008 | tipifarnib -0.183 | mubritinib 0.036

FADD (UniProt Q13158)
inactive: [1] 0.013 | crizotinib -0.021 | [2] -0.137 | [3] -0.027 | duvelisib -0.097 | tozasertib -0.03 | [4] 0.073 | doramapimod -0.189 | ispinesib -0.075 | bafetinib -0.066 | nilotinib -0.041 | [6] -0.046 | dasatinib -0.343 | [7] 0.022 | [8] 0.05 | [9] -0.048 | tipifarnib -0.089 | mubritinib 0.044

EPHA6 (UniProt Q9UF33)
inactive: [1] 0.196 | crizotinib 0.324 | [2] -0.002 | [3] 0.524 | duvelisib 0.089 | tozasertib -0.113 | [4] -0.017 | doramapimod 0.288 | ispinesib -0.517 | bafetinib -0.379 | nilotinib -0.039 | [6] 0.122 | dasatinib 0.059 | [7] 0.232 | [8] -0.022 | [9] -0.064 | tipifarnib 0.363 | mubritinib -0.055
